Experimental data published in PubChem BioAssay AID504444 (National Center for Advancing Translational Sciences (NCATS), 2011).
Screen size: about 360,000 compounds; about 7,500 (2.1%) were called active. The shares of active, inactive and inconclusive entries below differ from those in the screen. Calls come from the whole dose curve; as a rule, active = well fitted inhibition curve with a large enough effect; inconclusive = small, poorly fitted or top-dose-only effect, or effect the other way; inactive = flat fitted curve, though single readings scatter. Where the call is inconclusive, the potency comes from a doubtful curve fit.

assay: Nrf2 qHTS screen for inhibitors; conditions: A549 ARE-Fluc reporter, luciferase luminescence, 18-24 h; activity change, negative = inhibition: at 46 µM (top of the series); note: nearly all actives have a fitted effect of over 60% in size
Method in brief: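 Nrf2 function is reported as luminescence of an ARE-controlled luciferase in A549 cells. Compounds were tested at several concentrations, and a CellTiter-Fluor read on the same wells flagged cytotoxicity.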
% is set by controls: 0 for no effect and ±100 for the full control effect; potency is the fitted concentration of half-maximal effect.

For `CCCn1c(C(C)Nc2nc(-c3ccc(C)cc3)cs2)nc2ccccc21` (stereo unspecified), which “activity change, negative = inhibition” value is on record?
Its value is inactive: 24.5%.

For `CCn1c(SCc2cccnc2)nnc1-c1c[nH]c2ccccc12`, which Potency is on record?
The Potency was inconclusive: 14.6 µM [falling, partial curve, poor fit].

Which “activity change, negative = inhibition” value does the source give for `CC(C)(C)c1ccc(C(=O)N2CCC(NC(=O)c3ccccc3)CC2)cc1` here?
Its value is inactive: -18.9%.

Which Potency does the source give for `Cc1ccc(-c2noc(CCC(=O)NCC3CCCO3)n2)cc1` (stereo unspecified) here?
The Potency was inconclusive: 16.4 µM [falling, single point].

For `O=C1c2ccccc2C(=O)N1CCCCCc1nc(-c2ccccc2)no1`, which Potency is on record?
Its Potency is inconclusive: 23.1 µM [falling, partial curve, poor fit].

For `CCOc1ccc(C(c2c(C)[nH]n(-c3ccccc3)c2=O)c2c(C)[nH]n(-c3ccccc3)c2=O)cc1OC`, which “activity change, negative = inhibition” value is on record?
Its value is inactive: 12.8%.

With `Fc1ccccc1SCc1nnc(-c2ccccc2Br)o1` as the molecule, how does the Potency read?
Its Potency is inconclusive: 1.64 µM [activator, full curve].

Which Potency does the source give for `COc1ccc(-c2nsc(NC(=O)c3cccc(OC)c3)n2)cc1` here?
The Potency was inconclusive: 25.9 µM [falling, partial curve, poor fit].

With `CCCc1ccc2oc(C(=O)NCc3nnc(C)o3)c(C)c2c1` as the molecule, how does the Potency read?
The Potency was inconclusive: 3.66 µM [activator, partial curve].

Which Potency does the source give for `CCN(CC)CCNC(=O)c1ccc2c(=O)n3nc(Nc4cccc(Cl)c4C)sc3nc2c1` here?
The Potency was inconclusive: 29.1 µM [activator, single point].

For `Cn1c(SCCN2CCOCC2)nc2sc3c(c2c1=O)CCCC3`, which “activity change, negative = inhibition” value is on record?
Its value is inactive: 20%.

For `N#Cc1ccc(C(=O)Nc2ccc3ccccc3c2)cc1`, which Potency is on record?
Its Potency is inconclusive: 4.61 µM [activator, partial curve].

For `Cc1sc2nc(SCC(=O)N3CCOCC3)[nH]c(=O)c2c1C`, which Potency is on record?
The Potency was inconclusive: 25.9 µM [falling, single point].

For `COc1ccc(Oc2nccc(-c3ccccc3)c2C#N)cc1`, which Potency is on record?
The Potency was inconclusive: 1.3 µM [activator, partial curve, poor fit].

Which Potency does the source give for `O=C(N/N=C/C=C\c1ccco1)c1ccccn1` here?
Its Potency is inconclusive: 8.2 µM [activator, partial curve, poor fit].

With `O=C(COc1ncnc2c1cnn2-c1ccccc1)Nc1ccc(S(=O)(=O)N2CCCCC2)cc1` as the molecule, how does the Potency read?
Its Potency is inconclusive: 20.6 µM [falling, single point].

For `O=C(Nc1ccccc1)Nc1nnc(CSCc2ccccc2Cl)s1`, which Potency is on record?
The Potency was inconclusive: 29.1 µM [falling, single point].

With `C/C(=N\NC(=O)C1CC1c1ccccc1)c1cccc([N+](=O)[O-])c1` (stereo unspecified) as the molecule, how does the Potency read?
The Potency was inconclusive: 23.1 µM [falling, single point].

With `O=C(CSc1nc2c(cnn2-c2ccccc2)c(=O)[nH]1)N1CCCCC1` as the molecule, how does the Potency read?
The Potency was inconclusive: 29.1 µM [falling, partial curve, poor fit].

With `CCOC(=O)Cc1ccc(NC(=O)c2ccccc2Br)cc1` as the molecule, how does the Potency read?
The Potency was inconclusive: 5.17 µM [falling, full curve, poor fit].

For `O=C(CSc1n[nH]c(-c2ccc(S(=O)(=O)N3CCCCC3)cc2)n1)Nc1nccs1`, which Potency is on record?
The Potency was inconclusive: 23.1 µM [falling, partial curve, poor fit].

With `Cc1ccsc1-c1cc(C(=O)O)c2c(ccc3ccccc32)n1` as the molecule, how does the Potency read?
Its Potency is inconclusive: 9.2 µM [activator, partial curve, poor fit].

For `COCC(=O)Nc1c(C(=O)Nc2cccc(OC)c2)oc2ccccc12`, which Potency is on record?
Its Potency is inconclusive: 20.6 µM [activator, single point].

For `CC1CCCCN1C(=O)c1ccc(CS(=O)(=O)Cc2ccccc2)cc1` (stereo unspecified), which Potency is on record?
The Potency was inconclusive: 20.6 µM [falling, partial curve, poor fit].

For `COc1ccc(C2Nc3ccccc3C(=O)N2c2cccc3ccccc23)cc1COc1c(C)cccc1C` (stereo unspecified), which “activity change, negative = inhibition” value is on record?
Its value is inactive: 7.83%.

For `CN1CCN(C(=S)c2cn(Cc3cccc(F)c3)c3ccccc23)CC1`, which Potency is on record?
The Potency was inconclusive: 4.11 µM [falling, single point].

With `CCCOc1ccccc1C(=O)Nc1ccc(-c2nc3ccc(C)cc3s2)cc1` as the molecule, how does the Potency read?
The Potency was inconclusive: 8.2 µM [activator, partial curve].

For `C[C@@H]1CC=C[C@H]2[C@H]1C(=O)N(Cc1ccccc1)[C@H]2c1ccc(-c2ccc(N(C)C)cc2)cc1F`, which Potency is on record?
The Potency was inconclusive: 20.6 µM [falling, single point].

For `Cc1cc(-c2ccccc2)nc2cc(C(=O)Nc3cc(C(F)(F)F)ccc3Cl)nn12`, which “activity change, negative = inhibition” value is on record?
The value was inactive: -4.92%.

With `Fc1ccc(-c2ccc(-c3nn4c(-c5ccco5)nnc4s3)o2)cc1` as the molecule, how does the Potency read?
Its Potency is inconclusive: 23.1 µM [falling, partial curve, poor fit].

Which Potency does the source give for `CCC(=O)Nc1ccc(OCc2nc3ccccc3s2)cc1` here?
Its Potency is inconclusive: 4.11 µM [activator, full curve].

Which “activity change, negative = inhibition” value does the source give for `COc1ccccc1CCNC(=O)C(=O)NCC1OCCCN1S(=O)(=O)c1cc(C)ccc1C` (stereo unspecified) here?
Its value is inactive: -21.8%.

With `CCOc1ccc(N2CC(C(=O)N3CCCCC3)CC2=O)cc1` (stereo unspecified) as the molecule, how does the Potency read?
Its Potency is inconclusive: 1.84 µM [falling, partial curve, poor fit].

With `Cc1cc(C)cc(NC(=O)CNC(c2ccccc2)c2ccccc2)c1` as the molecule, how does the Potency read?
Its Potency is inconclusive: 29.1 µM [falling, single point].

Which “activity change, negative = inhibition” value does the source give for `Cc1ccc(C(=O)c2ccc(C)cc2)cc1` here?
Its value is inactive: 15.7%.

With `Cc1ccc(-c2csc(NC(=O)C3=NN(c4ccccc4)C(=O)CC3)n2)cc1` as the molecule, how does the Potency read?
Its Potency is inconclusive: 20.6 µM [falling, partial curve, poor fit].

For `Cc1ccc(Cn2cc3c(n2)-c2c(oc(C(=O)Nc4ccc(F)cc4F)c2C)CC3)cc1`, which “activity change, negative = inhibition” value is on record?
Its value is inactive: -7.48%.

With `Cc1ccc2c(c1)C(c1ccccc1)N(C(=O)c1cccc([N+](=O)[O-])c1)CC(=O)N2` (stereo unspecified) as the molecule, how does the Potency read?
Its Potency is inconclusive: 2.31 µM [falling, partial curve, poor fit].

Which Potency does the source give for `O=C(Nc1ccc(F)cc1)c1ccc2snnc2c1` here?
Its Potency is inconclusive: 8.2 µM [activator, partial curve].

Which Potency does the source give for `CCCCNc1ccc2c(c1)C1CC2CCN1C(=O)OCc1ccccc1` (stereo unspecified) here?
Its Potency is inconclusive: 29.1 µM [activator, single point].

Which Potency does the source give for `COc1cccc(C(CNC(=O)c2ccc(Cl)c(S(=O)(=O)N3CCCC3)c2)N(C)C)c1` (stereo unspecified) here?
Its Potency is inconclusive: 29.1 µM [falling, single point].

With `CNC(=O)c1c(NC(=O)CS(=O)(=O)c2ccc(Cl)cc2)sc(C)c1C` as the molecule, how does the Potency read?
Its Potency is inconclusive: 18.4 µM [falling, single point].

Which Potency does the source give for `CC(C)(C)c1nnc(SCC(=O)Nc2ccc(N3CCCCC3)cc2)n1N` here?
Its Potency is inconclusive: 13 µM [activator, partial curve, poor fit].

For `O=C(NN=C1C2CC3CC(C2)CC1C3)c1cccs1`, which Potency is on record?
The Potency was inconclusive: 32.6 µM [activator, single point].

With `CCc1nn2c(=O)cc(COC(=O)c3cccs3)nc2s1` as the molecule, how does the Potency read?
The Potency was inconclusive: 16.4 µM [falling, single point].

For `COc1ccc(C(CNC(=O)c2cccc(NS(=O)(=O)c3ccc(C)c(F)c3)c2)N2CCCC2)cc1` (stereo unspecified), which “activity change, negative = inhibition” value is on record?
The value was inactive: -7.76%.

With `Cc1cc(OCc2cn3cccnc3n2)ccc1Cl` as the molecule, how does the “activity change, negative = inhibition” value read?
The value was inactive: 19.3%.

Which “activity change, negative = inhibition” value does the source give for `COC(CN(C(=O)CCl)C(C(=O)NC1CCCCC1)c1ccc(Cl)cc1)OC` (stereo unspecified) here?
The value was inactive: 1.84%.

With `O=C(Nc1ccn(CCCN2CCN(c3ccccn3)CC2)c(=O)n1)OCc1ccccc1` as the molecule, how does the Potency read?
Its Potency is inconclusive: 29.1 µM [falling, partial curve, poor fit].

Which Potency does the source give for `CC(=O)N/N=C/c1cc(C(C)C)cc(/C=N/NC(C)=O)c1O` here?
The Potency was inconclusive: 23.1 µM [activator, partial curve, poor fit].

With `COc1ccccc1NC(=O)C(=O)N/N=C/c1cccs1` as the molecule, how does the Potency read?
Its Potency is inconclusive: 16.4 µM [activator, partial curve].

With `Cc1cccc(C(=O)NCC(=O)OCc2cc(=O)n3nc(C)sc3n2)c1` as the molecule, how does the Potency read?
The Potency was inconclusive: 29.1 µM [activator, single point].

Which Potency does the source give for `COc1ccc2nc(Sc3c([N+](=O)[O-])nc(C)n3Cc3ccccc3)[nH]c2c1` here?
Its Potency is active: 13 µM.

With `Cc1cc(C(=O)N/N=C/c2cc(Br)cc(Br)c2OC(=O)c2cccc(F)c2)n[nH]1` as the molecule, how does the Potency read?
The Potency was inconclusive: 29.1 µM [falling, single point].

For `COc1ccc(OCc2n(CC(=O)OC3CC(C)CCC3C(C)C)c3ccccc3[n+]2C)cc1` (stereo unspecified), which Potency is on record?
Its Potency is inconclusive: 2.06 µM [falling, partial curve, poor fit].

Which Potency does the source give for `CCN(CC)c1ccc(NC(=O)CN2C(=O)CSc3ncccc32)c(C)c1` here?
Its Potency is active: 10.3 µM.

Which “activity change, negative = inhibition” value does the source give for `Cc1cnc(C(=O)OCC(=O)Nc2ccc3c(c2)OCCO3)cn1` here?
The value was inactive: 1.44%.

Which Potency does the source give for `O=c1cc(CSc2ccc(Cl)cc2)nc(-c2ccccn2)[nH]1` here?
Its Potency is inconclusive: 29.1 µM [falling, single point].

With `CC1=NN(C(N)=S)C(=O)C1N=Nc1ccc(C)c(Br)c1` (stereo unspecified) as the molecule, how does the Potency read?
The Potency was inconclusive: 5.8 µM [activator, full curve].

With `COCCCC/C(=N\OCCN)c1ccc(C(F)(F)F)cc1` as the molecule, how does the Potency read?
The Potency was “inactive”.

Which “activity change, negative = inhibition” value does the source give for `CCOc1cc(S(=O)(=O)NCCc2ccccc2C)c(OCC)cc1-n1cnnn1` here?
The value was inactive: -23.2%.

With `CCc1ccccc1NC(=S)N(CCN(C)C)Cc1cccs1` as the molecule, how does the Potency read?
Its Potency is inconclusive: 7.31 µM [activator, partial curve, poor fit].

For `CC1CC(C)C(=O)C(C(CC2CC(=O)NC(=O)C2)OC(=O)CC(=O)c2ccccc2)C1` (stereo unspecified), which Potency is on record?
The Potency was active: 5.17 µM.

Which Potency does the source give for `O=C(NNC(=S)NC(=O)c1ccc(Br)cc1)c1ccc([N+](=O)[O-])cc1` here?
Its Potency is active: 20.6 µM.

Which Potency does the source give for `Cc1nn(CCc2nn[nH]n2)c2nc(-c3ccc(C4CCCCC4)cc3)cc(C(F)(F)F)c12` here?
Its Potency is inconclusive: 29.1 µM [falling, single point].

Which Potency does the source give for `O=C(Nc1cc(-c2nc3cc(Cl)ccc3o2)ccc1Cl)c1cc2ccccc2o1` here?
The Potency was inconclusive: 14.6 µM [activator, partial curve].
